Measurements reported in PubChem BioAssay AID1259300 (Sanger Institute, 2017)

Purpose: 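siRNA screen of kinases and common colorectal cancer mutant genes, alone or with drugs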 (primary screen)
Cells: HCT15 colorectal cancer cells
Reagent: siRNA pool against human genes
Challenge: anchor drug or DMSO vehicle added 24 h after seeding: BYL719 1 µM, cetuximab 5 µg/ml, trametinib 10 nM; drug doses chosen to barely affect viability alone
Measurement: 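Cell viability after knock-down, as fraction of non-targeting pool wells averaged over replicates, plus robust z-score for knock-down alone; synergy score per drug (BYL719 1 µM, cetuximab 5 µg/ml, trametinib 10 nM)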
Scale: viability z-score, siRNA alone: higher = more viable cells after knock-down
Call rule: 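Called active (essential) if viability z-score with knock-down alone falls below -3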
Meaning of the calls: active = essential: knock-down alone lowers viability (z below -3); inactive = no strong viability loss with knock-down alone
The whole screen tested 794 reagents; shown is a part drawn at random. 18 of them (2.3%) count as active. 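Calls rest on knock-down alone, not drug synergy; depositor treated synergy scores above 0.15 as synergistic; drug doses alone had little viability effect.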 A number with no mark means an inactive call. Further read-outs or replicates are left out here. Not given: the amount of reagent, the time to read-out.

| Target gene | viability z-score, siRNA alone |
| --- | --- |
| CDKL3 (GeneID 51265) | 0.625 |
| CDK8 (GeneID 1024) | 0.625 |
| DGKK (GeneID 139189) | 0.101 |
| EEF2K (GeneID 29904) | -1.24 |
| ULK2 (GeneID 9706) | -0.346 |
| PGK2 (GeneID 5232) | 0.625 |
| SRPK3 (GeneID 26576) | -0.636 |
| GRK3 (GeneID 157) | 0.625 |
| GRK2 (GeneID 156) | 0.625 |
| CDK12 (GeneID 51755) | -0.314 |
| PFKP (GeneID 5214) | 0.625 |
| IRAK3 (GeneID 11213) | -1.67 |
| SRP72 (GeneID 6731) | -3.06 (active) |
| TPD52L3 (GeneID 89882) | 0.625 |
| LATS2 (GeneID 26524) | 0.625 |
| ULK4 (GeneID 54986) | -3.06 (active) |
| PCK1 (GeneID 5105) | -1.17 |
| NEK8 (GeneID 284086) | -1.95 |
| STK32C (GeneID 282974) | 0.625 |
| DGKB (GeneID 1607) | 0.224 |
| TSSK3 (GeneID 81629) | -0.401 |
| ROCK2 (GeneID 9475) | 0.625 |
| EPHA10 (GeneID 284656) | 0.625 |
| BPTF (GeneID 2186) | 0.232 |
| ARID1A (GeneID 8289) | 0.625 |
| STK35 (GeneID 140901) | 0.625 |
| NEK5 (GeneID 341676) | 0.625 |
| PIP4K2C (GeneID 79837) | -2.45 |
| CSNK1G2 (GeneID 1455) | -0.325 |
| PI4KA (GeneID 5297) | 0.625 |
| PACSIN1 (GeneID 29993) | 0.625 |
| DGKH (GeneID 160851) | -0.0372 |
| CALM2 (GeneID 805) | 0.625 |
| CDADC1 (GeneID 81602) | -0.0512 |
| ANKK1 (GeneID 255239) | 0.195 |
| PAPSS2 (GeneID 9060) | 0.625 |
| CALM3 (GeneID 808) | 0.441 |
| MELK (GeneID 9833) | 0.625 |
| TP53 (GeneID 7157) | -0.158 |
| DYRK1B (GeneID 9149) | -0.186 |
| RNASEL (GeneID 6041) | 0.625 |
| GUK1 (GeneID 2987) | -3.24 (active) |
| DDR1 (GeneID 780) | 0.625 |
| CSNK2A2 (GeneID 1459) | 0.0146 |
| COQ8B (GeneID 79934) | 0.0594 |
| TCF12 (GeneID 6938) | 0.625 |
| PIK3R1 (GeneID 5295) | 0.39 |
| AMHR2 (GeneID 269) | 0.625 |
| MAPKAPK2 (GeneID 9261) | 0.625 |
| PRKAA2 (GeneID 5563) | 0.625 |
| MAGI3 (GeneID 260425) | 0.625 |
| SCYL1 (GeneID 57410) | 0.625 |
| DDR2 (GeneID 4921) | 0.0497 |
| KSR2 (GeneID 283455) | 0.625 |
| AK2 (GeneID 204) | 0.625 |
| PCBP1 (GeneID 5093) | -0.228 |
| MTOR (GeneID 2475) | 0.407 |
| ULK3 (GeneID 25989) | 0.249 |
| SHPK (GeneID 23729) | -0.414 |
| CKM (GeneID 1158) | -0.549 |
| SGK3 (GeneID 23678) | 0.575 |
| CDK1 (GeneID 983) | 0.625 |
| MLKL (GeneID 197259) | -0.956 |

Entries listed so far whose target name starts with R or r:
| Target gene | viability z-score, siRNA alone |
| --- | --- |
| ROCK2 (GeneID 9475) | 0.625 |
| RNASEL (GeneID 6041) | 0.625 |
